We go through 107 sequences from PubChem BioAssay AID1508600 (Functional Genomics Laboratory (NCATS/FGL), 2020).

Among all 53,000 sequences or so, about 3,700 (7%) were called active.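 How the source made its calls: active means gene knockdowns whose robust z-score for IL-1 alpha signal is at least 2 or at most -2, so actives lie on both sides; inactive means the rest.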 This is one part of the list.

The nature of the experiment: Components of the Cytosolic LPS Sensing Pathway: Gene Identification via Genome-wide siRNA Screen.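 Further: robust z of the log signal after scaling to non-targeting control siRNA wells of the plate.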 Particulars: RAW264.7 macrophages, IL-1a HTRF, actives lie on both sides, screened at 100 nM (by protocol), cells primed 5 h with Pam3CSK4 first. The method, boiled down: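 Cells (RAW264.7, 1×10^4 per well) were transfected with siRNA at 100 nM and cultured 48h at 37 degrees C. Pam3CSK4 was added for 5 hours; LipidA transfection followed for 24 hour. IL-1a was then measured by HTRF.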
In general terms: Time-resolved FRET reads energy transfer from a long-lived donor to a nearby acceptor.
For the sequence GGAUUUACGACCUAACCAUTT against Naxd, the z-score was inactive: 0.357. As for GGCAAAAUGAAUGAGGAAATT against Ces1c, the figure is inactive: 1.01; as for CCUUUGGUUUCCAGUGAGUTT against H2-M10.6, inactive: 0.204. As for GGCUUGAAGAUGUCUAUGATT against Aptx, the figure is active: -2.19. As to CCUUUGACUAAUCGUUUUGTT against Tpp1, the z-score is inactive: 0.762.

GGAGAACCAAAACAGCGAATT against Hoxa2: the z-score is inactive: -0.508. For the sequence CCUUUAGAGAAAAGUUCUATT against Pja2, the z-score is inactive: 0.369. Consider GCUGUCCUUUUGAAAGAUATT against Rgs8, for which the z-score is inactive: 0.933. On to GGUUCUGUCCAAUGUCUGATT against Oas1f, for which the z-score is inactive: 1.92. Regarding ACUAUGUGCGAAACUCGCGTT against Lhfpl5, the z-score was inactive: 0.526. As for GGCCAUUCCUCAACAACAUTT against Mpzl3, the figure is inactive: -1.02; as for GGCCUCAAUGCAGUAUCAATT against Shisal2b, inactive: 0.773; as for GGACCUGGAAUUCGUCUGATT against Socs3, inactive: 0.938. In the case of GCAGUUUUAACUGGCCAUATT against Nr2f2, the z-score was inactive: 1.7. CCUUCUUAUAGGUUAACUGTT against Pde10a: the z-score was inactive: 1.49.

In the case of GGAGUUCAAGGCCAAGGAATT against Atp6v1g1, the z-score was inactive: -0.935. In the case of CCACUGCUUACUUCCUGUATT against Cd74, the z-score was inactive: -0.38. On to GGAGGAUGGGCAAGAAUAUTT against Eif1ax, for which the z-score was inactive: 1.39. Take GCUUGACUUGUUUUUGGCATT against Nfib: the z-score was inactive: 0.893.

Take GCUUCGAGAGUUCAACAUCTT against Zmynd19: the z-score was inactive: -0.144. CGAAUCAUGUGUUUGCACATT against Camkk2: the z-score was inactive: 1.21. In the case of GCUGAACGGUCUCAAACAGTT against Cdca3, the z-score was inactive: 0.395. For GGUCCUAGGUACAAUCACUTT against Slfn10-ps, the z-score was active: -2.58. In the case of GGAAAGACACAAGUGGAAATT against Nav2, the z-score was inactive: 0.061. For GGCUACCGAGACAAUGCUUTT against Pcmtd1, the z-score was inactive: 0.232. Turning to GGACAGCAGCAACAACAUCTT against Dnase1l3, the z-score is active: -2.04. With GAGGGAUAUGUGAAGCCUCTT against Mospd3, the z-score was inactive: -0.806. For CGUGGAAGACAUACAACCCTT against Tmem181a the value was active: 3.03; for GGACUCCUAUGUGGGUGACTT against Actb, inactive: 0.138; for GGAUGACUCACAGAAUUUGTT against Olfr167, inactive: -0.572.

As for GGAGAUGCUCAUUUUGAUUTT against Mmp8, the z-score was inactive: 1.76. As for GGUGGCUAGCCAGACAAAATT against Rnf151, the figure is inactive: 1.22; as for GCUUAAACCGCCUAUGUUCTT against Spcs1, inactive: 0.782; as for GGAAAGAAUCACAAGGAAATT against Wbp4, inactive: 1.14.

GGAGCGACAACUGUGAUAUTT against Liph: the z-score was inactive: -0.717.

In the case of GGCAAAGAAUGCACUUUCUTT against Elapor2, the z-score is inactive: -0.536. For AGGUUUUUAGCCUGAGUGATT against Olfr688 the value was inactive: 0.602; for GGAAUAAGUAGUGAUAGAGTT against Il5ra, inactive: -0.0143.

With GGCUUGACUGAAUAAUAAUTT against Gpr157, the z-score is inactive: -0.424. For GCCCAAGUUUCGGUCUCCATT against Map4k1 the value was inactive: -0.0375; for GAGCAGCUGAUCACUGGAATT against Tuba3a, inactive: 1.49; for “GCAGUCCAUCAAUAUUAUGTT against 9530077C05Rik”, inactive: 0.817. As to GCAGUAUUGAUAAAAGUACTT against Fam171b, the z-score was inactive: 0.242.

Take GGAAACACAUCAUUUGAUGTT against Tmem131: the z-score is inactive: -0.56. As for CCAAGAGGAUUUUCUCUUUTT against Krtap6-1, the z-score is inactive: -0.0495. With GGACAACUUCACCUUGAUUTT against Dpysl2, the z-score is inactive: 0.643.

In the case of GGAACUCAGUCAGGACCAATT against Hnf4aos, the z-score was inactive: 0.954. On to GGUUCUAGACAAUUACCUGTT against Clic1, for which the z-score was active: 2.43. For GGAUCAUUUACAUUCAUACTT against Alg12, the z-score is active: -2.6.

Turning to GCCCACGUAUUUGUCUGCUTT against Sprn, the z-score is active: -2.58.

Regarding GGUUGUGCAUUGUUUAUUGTT against Ppfibp1, the z-score was inactive: -0.788. For GCUGAUCUUUUUCAACAUGTT against Tas2r102 the value was inactive: 1.02; for GGCAUACAAAGCCCUCUAUTT against Kcnrg, inactive: -0.457. As for CCUCAUCUACAAGUGUGGUTT against Eef1a2, the z-score is inactive: -0.622.

On to GGUUCAAGCCAUCUUCAAATT against Olfr1325, for which the z-score is inactive: -0.876.

GGUGACAUGGAUGUAGCAATT against Fcsk: the z-score was inactive: 1.18. For GGGAAUUCUUCCCACCUCUTT against Pramel7 the value was inactive: -1.1; for CCUUCCAUCUUUGUCUACCTT against Olfr1181, inactive: -0.39. On to CUUCUUCUAGCCUACCUCATT against Olfr1344, for which the z-score is inactive: -0.388. For CAGUUUUUGGUCUCUAUCUTT against Olfr113 the value was active: 2.27. Turning to GGCCUAAGAUCAACUGACATT against Prl8a2, the z-score was inactive: 0.373. For GCAACACCUACGUUUUUGUTT against Txnl1, the z-score is inactive: -0.923. For the sequence GGAAGAUGUCUCCUAUGAGTT against Hebp1, the z-score is active: -2.42.

Regarding GCAAGAGGGUUUGUUCCUUTT against Sec11a, the z-score is inactive: 0.965. As for CCGAUAAUAUCAAUGGAAATT against Med24, the z-score is inactive: 0.744. In the case of GGAAUCCAAGAAGCCACCATT against Ghrl, the z-score is inactive: 0.341. Take CCAAGGGUAGUAUUUUAAATT against Nufip1: the z-score was inactive: 0.358. With GGAACAGCCUAUGUGGUCUTT against Sf3b6, the z-score is active: -2.17.

Take GGUCCAAUGGAUUUUGUUUTT against Pxdc1: the z-score is active: 2.06.

Turning to GGAGGAGGUGGAAUUCAUUTT against Dnajb6, the z-score was inactive: -0.299.

Consider CCCACUGUGAAGAGAGGCATT against Xlr3c, for which the z-score was inactive: -1.41. Take GGGUCUGCUGGUUUAUUUUTT against Olfr720: the z-score was inactive: 0.99. As for GACAAGAUGCACUUCGAAUTT against Uchl3, the figure is inactive: 0.741; as for GGAUUUUUGGCUUCAUACUTT against Dcbld2, inactive: 0.0618; as for GGACAGUUGUGUUUCUUCUTT against Senp6, inactive: 1.09. GCUUUCUACUAAGCCUGCUTT against Gpr149: the z-score was inactive: 0.633.

In the case of CGGAAAUGUAAGUACUUUATT against Taf13, the z-score was active: 2.25. With GUAGUAACCAGAUCUUAUATT against Vmn1r29, the z-score was inactive: 0.496. For the sequence GGAGAAGUUGUUCAGGGAATT against Brms1, the z-score is inactive: -0.0362. As to GGCACGAGGCAGAAUUUUATT against Kctd3, the z-score is inactive: 0.696. For GGAGAUCCAUAUCAAUGGGTT against Pgghg, the z-score was inactive: 0.202.

With GCCUGUUCUAUGUUACUGGTT against Olfr320, the z-score is inactive: -1.99. Regarding CCGGAGCUUUAUUGACACGTT against Rbm19, the z-score is inactive: 1.15. As for GGAUUCUUUCAGGGUCUAATT against Olfr658, the figure is inactive: -0.738. As for CCCAGCGCACUUACAUGUCTT against Gpaa1, the figure is inactive: 0.558; as for GGAGCCUUACUGGAGAUUUTT against Hacd2, inactive: -0.394; as for GGUUUGCUUUCAUGACUAUTT against Cyp3a41a, inactive: -0.914. Consider GGUCCAUACAAGUGUUUGATT against Camk2b, for which the z-score was inactive: -0.15. Take GCCCAAGACGAAAAGAUACTT against Mrpl9: the z-score was inactive: 0.662. Consider GGAAGAAUGGAAGAAGAAATT against Clec1a, for which the z-score is inactive: -0.596. As for GGCAAUGUGCCCAAUAUCATT against Rfc2, the z-score is inactive: -1.61.

As for GCGUGGGAGACAAAUGAAATT against Sstr5, the z-score is inactive: -0.053. As for GGUGAAGAAAGCACUAGUUTT against Olfr979, the figure is inactive: -0.873; as for GGAAAGAAUCCACUUGCAUTT against Xkr5, inactive: -1.35; as for GGUGCUGAAGCUACGCUAUTT against Wnt9b, inactive: -0.918. With GGGCCAGAGUCAGAAAAGGTT against Ebp, the z-score was inactive: 1.98. For GGCGUGAAGAAUUUGUCAATT against Prc1, the z-score is inactive: 0.878. Consider GGAGAAGCAUAAAUUUGAGTT against Nlrc3, for which the z-score is inactive: 0.176. Turning to CGACUUGGAACUCACUGGUTT against Stfa2l1, the z-score was inactive: -0.178. As for CCUCUUAUUCAGAAUGUCCTT against Bnc2, the z-score is inactive: 0.451. As for GGUAGAAUUCAAUGUAUCATT against Arhgap17, the figure is inactive: -0.615; as for GCUGAUCAGCAUUAUUCACTT against Esyt1, inactive: 0.318; as for GCCAACCUUAGGAGACAUCTT against Zfp40, inactive: -0.553.

In the case of CGAAAAGGUGGACUUUUAGTT against Rnf4, the z-score was inactive: -0.545. For “GGUCAGACUUGAUUAUUUGTT against F830104G03Rik”, the z-score was inactive: -0.361. Turning to GGCCAUGGAAAAAUCUCAGTT against Dtna, the z-score was inactive: 0.557. Regarding GGCAUCAAUAGGAAGAUGCTT against Rgs19, the z-score is inactive: 0.182.
